# Measured data: PubChem BioAssay AID1159578 (Peter MacCallum Cancer Centre, 2015)
# Purpose: 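Knock-downs that alter how fast lymphatic endothelial cells migrate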 (primary screen)
# Cells: human lymphatic endothelial cells
# Reagent: siRNA pool against human genes, 40 nM
# Time to read-out: 48 h after transfection
# Measured: 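Cells stained with dye and imaged after a scratch; covered wound area and nuclei counted, duplicates averaged, migration set against mock wells and turned into a robust z-score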
# Direction: migration robust z-score: higher = faster migration into the scratch; migration relative to mock: higher = more scratch area covered than mock; nuclei per well: higher = more cells in the well
# Call rule: 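Migration changed when robust z exceeds 2 or falls below -2 and mean nuclei number is at least 3300; otherwise not called changed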
# Meaning of the calls: active = migration changed; inactive = no migration change, or too few cells
# Shown is a random part of about 18,000 reagents tested. About 1,030 of them (5.7%) were called active. 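Inactive calls also include pools with fewer than 3300 nuclei, whose migration was not assessed.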 Raw values vary from plate to plate and are shown uncorrected. Entries without a mark were called inactive.
migration robust z-score,migration class with cell-count check,migration relative to mock,"nuclei per well, duplicate mean",gene symbol
-0.75,migration z between -2 and 2; enough cells,0.69,5952,GNPTG (N-acetylglucosamine-1-phosphate transferase subunit gamma)
-0.32,migration z between -2 and 2; enough cells,0.8,5181,RPL41 (ribosomal protein L41)
0.78,migration z between -2 and 2; enough cells,0.96,6199,TPRA1 (transmembrane protein adipocyte associated 1)
0.64,migration z between -2 and 2; enough cells,0.93,5801,HDAC7 (histone deacetylase 7)
-0.91,migration z between -2 and 2; enough cells,0.63,3921,TLR4 (toll like receptor 4)
0.11,migration z between -2 and 2; enough cells,0.82,4798,DHRS4 (dehydrogenase/reductase 4)
-1.35,migration z between -2 and 2; enough cells,0.55,4003,PANK3 (pantothenate kinase 3)
0.26,migration z between -2 and 2; enough cells,0.86,6252,CCNC (cyclin C)
-1.29,migration z between -2 and 2; enough cells,0.55,6032,YTHDC1 (YTH N6-methyladenosine RNA binding protein C1)
-0.08,migration z between -2 and 2; enough cells,0.86,5558,PIGT (phosphatidylinositol glycan anchor biosynthesis class T)
0.18,migration z between -2 and 2; enough cells,0.84,4534,CHPF (chondroitin polymerizing factor)
0.78,migration z between -2 and 2; enough cells,1.09,4981,FAM174C (family with sequence similarity 174 member C)
-1.65,migration z between -2 and 2; enough cells,0.45,4534,KANSL2 (KAT8 regulatory NSL complex subunit 2)
-1.85,migration z between -2 and 2; enough cells,0.4,5409,ZNF211 (zinc finger protein 211)
0.86,migration z between -2 and 2; enough cells,0.97,6316,PLA2G15 (phospholipase A2 group XV)
0,migration z between -2 and 2; enough cells,0.8,5434,KIF5B (kinesin family member 5B)
-2.18 (active),migration z below -2; enough cells,0.38,5056,DPYSL2 (dihydropyrimidinase like 2)
-1.03,migration z between -2 and 2; enough cells,0.6,5296,APOC4 (apolipoprotein C4)
0.86,migration z between -2 and 2; enough cells,1.11,5419,MYORG (myogenesis regulating glycosidase)
1.09,migration z between -2 and 2; enough cells,1.02,6044,PTPN14 (protein tyrosine phosphatase non-receptor type 14)
-1.06,migration z between -2 and 2; enough cells,0.6,5360,SHH (sonic hedgehog signaling molecule)
1.86,migration z between -2 and 2; enough cells,1.17,5748,LRR1 (leucine rich repeat protein 1)
0.22,migration z between -2 and 2; enough cells,0.94,5848,RGS21 (regulator of G protein signaling 21)
-0.47,migration z between -2 and 2; enough cells,0.72,5706,GPX7 (glutathione peroxidase 7)
-3.07,under 3300 nuclei; migration not judged,0.07,2236,VPS45 (vacuolar protein sorting 45 homolog)
-0.21,migration z between -2 and 2; enough cells,0.76,5498,"MERTK (MER proto-oncogene, tyrosine kinase)"
-0.62,migration z between -2 and 2; enough cells,0.68,6202,RRAS2 (RAS related 2)
-0.83,migration z between -2 and 2; enough cells,0.68,5736,DCAF4L1 (DDB1 and CUL4 associated factor 4 like 1)
0.18,migration z between -2 and 2; enough cells,0.93,6334,ITIH5 (inter-alpha-trypsin inhibitor heavy chain 5)
-2.57 (active),migration z below -2; enough cells,0.31,3930,CLIP2 (CAP-Gly domain containing linker protein 2)
-0.36,migration z between -2 and 2; enough cells,0.8,6164,VWA8 (von Willebrand factor A domain containing 8)
1.6,migration z between -2 and 2; enough cells,1.12,6104,SPPL3 (signal peptide peptidase like 3)
-0.73,migration z between -2 and 2; enough cells,0.7,5178,H2BC3 (H2B clustered histone 3)

Only “migration robust z-score” (3 entries from above):
MERTK (MER proto-oncogene, tyrosine kinase): -0.21
RRAS2 (RAS related 2): -0.62
DCAF4L1 (DDB1 and CUL4 associated factor 4 like 1): -0.83

Next results follow:
migration robust z-score,migration class with cell-count check,migration relative to mock,"nuclei per well, duplicate mean",gene symbol
1.97,migration z between -2 and 2; enough cells,1.19,6943,ERG (ETS transcription factor ERG)
1.38,migration z between -2 and 2; enough cells,1.07,5344,CTSB (cathepsin B)
-0.05,migration z between -2 and 2; enough cells,0.8,5706,BDP1 (BDP1 general transcription factor IIIB subunit)
0.37,migration z between -2 and 2; enough cells,0.98,5858,"PLEKHH1 (pleckstrin homology, MyTH4 and FERM domain containing H1)"
0.46,migration z between -2 and 2; enough cells,0.9,5006,ABCC10 (ATP binding cassette subfamily C member 10)
-1.27,migration z between -2 and 2; enough cells,0.55,4700,SHANK2 (SH3 and multiple ankyrin repeat domains 2)
1.53,migration z between -2 and 2; enough cells,1.1,5896,GABRA1 (gamma-aminobutyric acid type A receptor subunit alpha1)
-0.86,migration z between -2 and 2; enough cells,0.64,5237,SNRNP27 (small nuclear ribonucleoprotein U4/U6.U5 subunit 27)
-0.24,migration z between -2 and 2; enough cells,0.76,5186,HCAR1 (hydroxycarboxylic acid receptor 1)
1.38,migration z between -2 and 2; enough cells,1.07,5178,MYO5B (myosin VB)
-0.05,migration z between -2 and 2; enough cells,0.8,5765,ARFGAP3 (ARF GTPase activating protein 3)
-0.15,migration z between -2 and 2; enough cells,0.77,5029,MTMR1 (myotubularin related protein 1)
0.7,migration z between -2 and 2; enough cells,1.06,5706,SPATA21 (spermatogenesis associated 21)
0.32,migration z between -2 and 2; enough cells,0.97,3742,FANK1 (fibronectin type III and ankyrin repeat domains 1)
-1.46,migration z between -2 and 2; enough cells,0.52,4985,ATF4 (activating transcription factor 4)
0.96,migration z between -2 and 2; enough cells,1.13,5648,PRR15L (proline rich 15 like)
1.14,migration z between -2 and 2; enough cells,1.18,5850,MDP1 (magnesium dependent phosphatase 1)
1.04,migration z between -2 and 2; enough cells,1,5367,FOXK2 (forkhead box K2)
-4.4,under 3300 nuclei; migration not judged,-0.26,2115,RPS29 (ribosomal protein S29)
1.64,migration z between -2 and 2; enough cells,1.31,5892,PCDHA6 (protocadherin alpha 6)
-0.46,migration z between -2 and 2; enough cells,0.76,5791,PCDHB9 (protocadherin beta 9)
-0.23,migration z between -2 and 2; enough cells,0.76,5217,RPS6KL1 (ribosomal protein S6 kinase like 1)
-1.34,migration z between -2 and 2; enough cells,0.54,5579,ZMAT1 (zinc finger matrin-type 1)
-0.52,migration z between -2 and 2; enough cells,0.7,5441,HOXA10 (homeobox A10)
